Results published in US7169591B1, “Preparation of enantio-specific epoxides” (priority 1999, dated 2007).
Some of these results come from one statement about several compounds together. For some assays here: For at least one compound, name, drawing or mass did not settle the structure.

Amino acid sequences for entries named in this document (tags omitted). A change or cut given only in a name is not applied to a line headed by its entry.
UniProt P27353: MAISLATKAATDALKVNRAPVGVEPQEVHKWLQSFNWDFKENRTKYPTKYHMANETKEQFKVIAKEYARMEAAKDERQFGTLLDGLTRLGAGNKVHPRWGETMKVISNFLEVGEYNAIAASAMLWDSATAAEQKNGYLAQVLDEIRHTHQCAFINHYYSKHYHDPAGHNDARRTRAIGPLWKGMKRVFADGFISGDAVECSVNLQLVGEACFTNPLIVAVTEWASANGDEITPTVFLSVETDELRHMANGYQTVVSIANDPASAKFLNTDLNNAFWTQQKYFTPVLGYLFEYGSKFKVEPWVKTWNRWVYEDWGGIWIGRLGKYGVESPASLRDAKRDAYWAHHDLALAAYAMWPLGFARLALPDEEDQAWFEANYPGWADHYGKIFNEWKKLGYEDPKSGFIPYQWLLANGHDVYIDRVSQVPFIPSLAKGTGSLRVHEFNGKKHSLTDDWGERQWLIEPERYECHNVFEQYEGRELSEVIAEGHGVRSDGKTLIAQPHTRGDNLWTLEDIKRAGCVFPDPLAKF

Assays:
[1] = test system: Burkholderia sp. strain ENVBF1; test: Alkene degradation assay, whole cells of Burkholderia sp. strain ENVBF1 (T4MO); format: cell-based
Source text: (§1) Pseudomonas mendocina KR1 (Yen et al., J. Bacteriol., 173:5315–5327 (1991)), the T4MO mutant of KR1 Pseudomonas mendocina ENVpmx1 (McClay et al., The 97th Annual Meeting of ASM, Abstract K36, page 348 (1997)), Pseudomonas pickettii PKO1 (Byrne et al., Gene, 154:65–70 (1995)), Burkholderia cepacia G4 (Shields et al., Appl. Environ. Microbiol., 55:1624–1629 (1989)), Burkholderia sp. strain ENVBF1 (McClay et al., Appl. Environ. Microbiol., 62:2716–2722 (1996)), and Pseudomonas sp. strain ENVPC5 (McClay et al., 1996, supra) were cultured overnight at 30° C. in shake flasks containing basal salts medium (BSM; 10) supplemented with 0.4% sodium glutamate. Toluene was included in the vapor phase when induction of the toluene oxygenases was desired. Prior to substrate degradation assays the cultures were harvested by centrifugation and resuspended in BSM to an optical density at 550 nm (OD550) of 2, unless otherwise indicated. A standard curve of optical density vs. protein concentration for each strain was used to calculate the amount of protein per ml of the resuspended cultures.
(§2) To determine the range of alkenes that could be degraded by the toluene monooxygenase and the degradation kinetics of the toluene monooxygenases, 5-ml aliquots of the resuspended cultures were dispensed to 25-ml serum vials and crimp sealed with Teflon™ faced septa. […]

[2] = test system: Pseudomonas mendocina ENVpmx1; test: Alkene degradation assay, T4MO deficient strain Pseudomonas mendocina ENVpmx1; format: cell-based; settings: twenty hours of incubation
Source text: as §1, §2

Burkholderia cepacia G4 = test: Alkene degradation assay, whole cells of Burkholderia cepacia G4 (T2MO); format: cell-based; settings: during the first five hours of incubation
Source text: as §1, §2

[3] = target: soluble methane monooxygenase (MMO) (Methylosinus trichosporium, UniProt P27353); settings: cited from earlier work

SMILES | added substrate degraded ([1]; during the first five hours of incubation) | decrease of substrate level [2] | added substrate degraded (Burkholderia cepacia G4) | enantiomeric specificity, share of a single isomer [3] | added substrate degraded ([1]; within twenty hours)
C=CC=C [1,3-butadiene] | Greater than 95% | less than 10% | Greater than 95% | less than 64% | 
C=CCC [1-butene] |  |  |  | less than 64% | 
CC=CC [2-butene] |  | less than 10% |  |  | Greater than 95%
C=CC [propene] |  |  |  | less than 64% | 
